Reference: PubChem BioAssay AID2685 (National Center for Advancing Translational Sciences (NCATS), 2010)
Some of the results follow. These are further read-outs of the screen, such as a control signal, another cell line or another target. No call is given for them. The list favours compounds with an active or inconclusive main result. Potencies come from curve fits of mixed quality, noted in brackets.

Test: qHTS Assay for Lipid Storage Modulators in Drosophila S3 Cells;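 on cell number change: cells counted by Cell Tracker Red CMTPX staining in the red channel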
Settings: BODIPY lipid droplet fluorescence, 18-24 h; for cell number change: measured here: cell count max response, cells fed with added oleic acid
How it was run: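 Laser-scanning cytometry quantifies lipid droplet accumulation (500–530 nm total intensity; droplet/cell object ratio) in oleic acid-fed (400 uM added) Drosophila S3 cells treated with a concentration series. 20 uM Triacsin C defined 100% inhibition.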

[1] = measured here: lipid fluorescence (Fed channel) AC50, cells fed with added oleic acid
[2] = measured here: cell number channel AC50, cells fed with added oleic acid

SMILES	cell number change	AC50 [1]	AC50 [2]
CC(C)(C)N(Cc1ccccc1)C(=O)c1ccc2c(c1)OCCO2	4.28%	29.1 µM [rising, single point]	
CC1CCN(C(=O)C2CCN(S(=O)(=O)c3cc(Cl)ccc3Cl)CC2)CC1	-0.557%	4.11 µM [rising, single point]	
CC(=O)Nc1ccc(OCC(=O)c2ccc(C)cc2C)cc1			1.84 µM [rising, partial curve]
C[C@]12CCC(=O)CC1CCC1C2CC[C@@]2(C)C1CC[C@@]21CCO1 (stereo partly drawn)	-31.1%		29.1 µM [falling, single point]
O=C(CNS(=O)(=O)c1ccc2c(c1)OCCCO2)N1CCN(Cc2ccccc2)CC1	7.61%	0.103 µM [falling, full curve, poor fit]	
Nc1ccc(Oc2c(Cl)cccc2Cl)nc1	26.6%	0.00517 µM [rising, full curve, poor fit]	
O=C(CNC(=O)c1cccs1)Nc1ncccc1O	-25%	29.1 µM [rising, single point]	0.103 µM [falling, full curve, poor fit]
CSc1nnc(Cc2sc(-c3ccccc3)nc2-c2ccccc2)o1		7.31 µM [rising, partial curve]	0.103 µM [rising, full curve, poor fit]
CCC(C)N1C(=O)CCC1C(=O)O (stereo not drawn)	-30.8%	20.6 µM [falling, partial curve]	0.731 µM [falling, full curve]
CC(C)C1C(=O)NC(=S)N1S(=O)(=O)c1ccc(C(C)(C)C)cc1 (stereo not drawn)	9.28%	29.1 µM [rising, single point]	
Cc1[nH]c(=S)[nH]c(=O)c1CCOc1ccccc1	22.6%	10.3 µM [rising, single point]	
CCNc1cccc2c1C(=O)N(C)C2=O	1.42%	1.03 µM [rising, full curve]	
COc1ccc(N2CCN(C(=O)/C(C#N)=C/c3ccccc3)CC2)cc1	6.07%		
O=C(Cc1ccc(F)cc1)Nc1nnc(SCC(=O)NC2CCCC2)s1	10.1%		
COc1cc(/C=C/C(=O)O)cc(S(=O)(=O)Nc2ccccc2Cl)c1OC	-50.3%	13 µM [falling, partial curve, poor fit]	10.3 µM [falling, partial curve]
CCn1nnnc1SCC(=O)Nc1cccc(C)n1	-1.67%	0.0058 µM [falling, full curve, poor fit]	
O=C(Nc1ccccc1N1CCCC1)c1cc(=O)[nH]c2ccccc12	100%		25.9 µM [rising, single point]
Cc1c(C(c2ccc(Br)cc2)c2c(C)n(C)n(-c3ccccc3)c2=O)c(=O)n(-c2ccccc2)n1C	-8.39%	3.26 µM [falling, single point]	
Cc1ccccc1OCC(=O)OC1CCN(C)CC1	-14.5%	6.51 µM [falling, single point]	
Cc1ccccc1NC(=O)N1CCNC(=O)C1CC(=O)Nc1cc(Cl)ccc1Cl (stereo not drawn)	7.94%	0.326 µM [rising, partial curve, poor fit]	
COc1ccccc1-n1c(SCC(N)=O)nc2c(c1=O)SCC2	27.2%	0.146 µM [rising, full curve]	

SMILES	cell number change	AC50 [1]	AC50 [2]
CCN1CCN(CCNC(=O)C2CCN(Cc3nc(-c4ccc(Cl)cc4)oc3C)CC2)CC1	2.98%	20.6 µM [falling, partial curve]	
O=S(=O)(Nc1ccn(-c2ccccc2)n1)c1ccc(Br)cc1	-14.9%	2.06 µM [rising, full curve, poor fit]	
O=C(C1CC(=O)N(C2CCCCC2)C1)N1CCN(c2cccc(C(F)(F)F)c2)CC1 (stereo not drawn)	-6.35%	29.1 µM [falling, single point]	
COc1ccccc1OCc1nc(C#N)c(N2CC(C)CC(C)C2)o1 (stereo not drawn)	-1.32%		
Cc1ccc(NS(=O)(=O)c2cc(C(=O)NCCCN(C)C)ccc2Cl)cc1Cl		0.103 µM [falling, full curve, poor fit]	
Cc1ccccc1N/C=C/C(=C(C#N)C#N)N(C)C	11.1%		0.731 µM [falling, full curve, poor fit]
COc1ccc(OC)c(C(=O)c2ccc(C(=O)Nc3ccc4ccccc4c3)cc2)c1	17.2%		
CCC1CCCCN1S(=O)(=O)c1ccc(C(=O)Nc2nnc(C3CC3)o2)cc1 (stereo not drawn)	13.8%		
Fc1ccc(-[n+]2nc(Nc3ccccc3)sc2-c2c3ccccc3cc3ccccc23)cc1	-60.5%		18.4 µM [falling, partial curve]
Cc1ccc(SCC(=O)NCCCN2CCOCC2)cc1	-118%	3.26 µM [falling, partial curve]	0.13 µM [falling, full curve, poor fit]
COc1ccc(C)cc1NC(=O)CCS(=O)(=O)c1cc2c(cc1Cl)NC(=O)CO2	-38.2%	1.84 µM [falling, partial curve]	0.366 µM [falling, full curve]
CCCCn1c(N)c(N(C(=O)CSc2nnc(C)n2-c2ccccc2)C2CCCC2)c(=O)[nH]c1=O	-3.48%		
CCC(=O)Nc1c(-c2ccc(OC)cc2)c(=O)c2ccccc2n1C	-10.3%	16.4 µM [falling, single point]	
OCCC#Cc1ccc(CN2CCN(CCc3ccccc3)C(CCO)C2)cc1 (stereo not drawn)	26.7%		
O=C1c2cc3ccccc3c(-c3ccccc3)c2C(=O)N1c1ccccn1		1.84 µM [falling, partial curve]	
Cc1nc2ccc(S(=O)(=O)NCC(=O)NC(C)c3ccccc3)cc2s1 (stereo not drawn)	4.1%	0.146 µM [rising, single point]	
Cc1nnc2n(-c3ccccc3)c(=O)c3c4c(sc3n12)CCCC4		0.103 µM [rising, full curve, poor fit]	
O=C(O)c1cccc(-n2cccc2/C=C2/SC(=O)N(CC(=O)N3CCCC3)C2=O)c1	-6.67%	29.1 µM [falling, single point]	
O=C(N/N=C/c1cc(Br)c(O)c(Br)c1)c1cccnc1	-26.1%		
COc1ccc(-c2cc(C(=O)NCC(c3ccccc3)N(C)C)c3ccccc3n2)cc1OC (stereo not drawn)	15.6%	1.3 µM [rising, partial curve, poor fit]	
O=C(COC(=O)/C=C/c1cccc(Br)c1)Nc1cccc(S(=O)(=O)NC2=NCCC2)c1	-31.8%	7.31 µM [falling, full curve]	5.8 µM [falling, full curve, poor fit]

Arranged by molar mass (smallest number first): 3 of the compounds above.
SMILES	cell number change	AC50 [1]	AC50 [2]
CC(C)(C)N(Cc1ccccc1)C(=O)c1ccc2c(c1)OCCO2	4.28%	29.1 µM [rising, single point]	
OCCC#Cc1ccc(CN2CCN(CCc3ccccc3)C(CCO)C2)cc1 (stereo not drawn)	26.7%		
O=C(C1CC(=O)N(C2CCCCC2)C1)N1CCN(c2cccc(C(F)(F)F)c2)CC1 (stereo not drawn)	-6.35%	29.1 µM [falling, single point]	

Additional records:

SMILES	cell number change	AC50 [1]	AC50 [2]
Cc1ccc(Cl)c(OCC(=O)Nc2ccccc2C(=O)NC2CC2)c1		2.06 µM [falling, partial curve]	
CC(C)CCNC(=O)NC(=O)COC(=O)/C=C/c1cnc2ccccc2n1	-14.9%	29.1 µM [falling, single point]	0.82 µM [falling, full curve, poor fit]
O=C(/C=C/c1cccc([N+](=O)[O-])c1)N1CCN(S(=O)(=O)c2cccs2)CC1	-5.46%		
CS(=O)(=O)c1ccc(Cl)c(NC(=O)c2cc(S(=O)(=O)N3CCOCC3)ccc2N2CCCC2)c1	-7.53%	0.00461 µM [falling, full curve, poor fit]	
COc1ccc(C(=O)OCC(=O)Nc2ccc(N3CCOCC3)cc2)cc1OC	-9.14%	29.1 µM [falling, single point]	
O=C(Nc1nccs1)C1CCCN1S(=O)(=O)c1cccc2cccnc12 (stereo not drawn)	33.1%	3.66 µM [rising, single point]	5.8 µM [rising, full curve, poor fit]
Cc1nnc2c(Oc3ccccc3)nc3ccccc3n12	36.8%	29.1 µM [rising, single point]	20.6 µM [rising, single point]
COc1ccc(-n2ncc3c(N4CCc5ccccc54)ncnc32)cc1	-1.18%	0.82 µM [rising, full curve]	
Nc1cc(=O)[nH]c(SCC(=O)NCC2CCCO2)n1 (stereo not drawn)	0.905%		
CCOC(=O)N1CCN(C(=O)c2cccc(OC)c2O)CC1	56.5%		20.6 µM [rising, single point]
CCCCNC(=O)CCCn1c(=O)[nH]c2ccc(Br)cc2c1=O	-1.88%	1.84 µM [rising, partial curve, poor fit]	
O=C(NCc1ccc(F)cc1)C(c1ccc(Cl)cc1)N(C(=O)c1csnn1)C1CC1 (stereo not drawn)	0.855%		
CCOc1ccc(-c2ncncc2-c2ccc(OC)c(OC)c2)c(O)c1	15.7%	4.11 µM [rising, full curve, poor fit]	
COc1cc(OC)c(/C=N/NC(=O)c2ccc(NC(C)=O)cc2)cc1Br	22.4%	29.1 µM [rising, single point]	
COc1ccccc1C(=O)Nc1ccc2nc(SCC(=O)N(C)C)sc2c1	6.67%	0.651 µM [rising, single point]	
O=C(Nc1ccc(Cl)cc1)N1CCSc2ccccc21			2.31 µM [falling, partial curve]
COc1ccc(-n2nnnc2SCC(=O)Nc2ccc3c(c2)OCCO3)cc1OC	-26.4%	1.84 µM [rising, full curve]	
CCOC(=O)c1c(C)nc(C)c(C(=O)OCC)c1-c1cccnc1	24.7%	0.92 µM [rising, full curve, poor fit]	
COC(=O)C1=C(C)OC(N)=C(C#N)C1c1cc2cccc(C)c2nc1Cl (stereo not drawn)		1.16 µM [rising, single point]	
